# Reference: patent publication US20250388541A1, “HETEROARYL COMPOUNDS FOR THE TREATMENT OF PAIN” (VERTEX PHARMACEUTICALS INCORPORATED, priority 2022, published 2025)
# The chains behind the UniProt entries cited, without tags or fusion partners. Residues count along the entry.
# UniProt Q9Y5Y9, 660-890 limits assumed: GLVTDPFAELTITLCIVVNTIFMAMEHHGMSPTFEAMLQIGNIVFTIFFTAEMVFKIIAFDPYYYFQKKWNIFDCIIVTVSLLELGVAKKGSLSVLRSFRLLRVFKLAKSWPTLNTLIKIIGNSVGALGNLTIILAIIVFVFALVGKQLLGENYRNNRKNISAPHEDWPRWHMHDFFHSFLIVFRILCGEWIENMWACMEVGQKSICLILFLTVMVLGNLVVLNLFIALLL
# UniProt Q9Y5Y9, 1148-1722 limits assumed: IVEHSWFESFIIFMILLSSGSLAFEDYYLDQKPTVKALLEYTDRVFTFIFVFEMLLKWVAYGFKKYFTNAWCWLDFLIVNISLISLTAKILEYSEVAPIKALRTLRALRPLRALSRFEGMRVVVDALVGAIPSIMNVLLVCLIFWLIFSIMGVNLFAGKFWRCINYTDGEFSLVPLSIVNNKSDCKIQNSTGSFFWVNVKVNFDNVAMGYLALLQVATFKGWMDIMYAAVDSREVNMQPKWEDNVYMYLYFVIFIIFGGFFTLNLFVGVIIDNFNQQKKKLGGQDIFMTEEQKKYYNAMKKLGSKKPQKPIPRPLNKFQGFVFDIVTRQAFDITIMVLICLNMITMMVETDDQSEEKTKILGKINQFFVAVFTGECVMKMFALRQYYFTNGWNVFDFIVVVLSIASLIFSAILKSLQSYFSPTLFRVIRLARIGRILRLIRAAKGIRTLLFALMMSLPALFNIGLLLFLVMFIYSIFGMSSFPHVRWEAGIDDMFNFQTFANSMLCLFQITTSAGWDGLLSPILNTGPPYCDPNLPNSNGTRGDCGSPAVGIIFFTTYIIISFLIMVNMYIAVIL
# UniProt Q9Y5Y9, 126-399 limits assumed: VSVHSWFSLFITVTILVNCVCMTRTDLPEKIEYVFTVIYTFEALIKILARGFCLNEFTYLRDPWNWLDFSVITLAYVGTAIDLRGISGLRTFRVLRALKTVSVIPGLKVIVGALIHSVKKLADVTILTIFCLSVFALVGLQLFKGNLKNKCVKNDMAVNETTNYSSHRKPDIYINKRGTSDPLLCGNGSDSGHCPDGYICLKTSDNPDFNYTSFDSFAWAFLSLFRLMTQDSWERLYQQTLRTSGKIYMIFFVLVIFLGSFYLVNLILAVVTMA
# pIC50: −log10 of the molar value. Some of these results come from one statement about several compounds together.
# Biological target: human NaV 1.8 (Homo sapiens, UniProt Q9Y5Y9)
# Assay: E-VIPR assay detecting and measuring NaV inhibition properties
# Assay type: cell-based
# Settings: HEK cells expressing a truncated form of human NaV 1.8; electrical stimulation, membrane potential FRET dyes; read-out: measured IC50 value in the E-VIPR Assay
# From the text: E-VIPR Assay Detecting and Measuring NaV Inhibition Properties
# Sodium ion channels are voltage-dependent proteins that can be activated by inducing membrane voltage changes by applying electric fields. […] The instrument comprises a microtiter plate handler, an optical system for exciting the coumarin dye while simultaneously recording the coumarin and oxonol emissions, a waveform generator, a current- or voltage-controlled amplifier, and parallel electrode pairs that are inserted into assay plate wells. Under integrated computer control, this instrument passes user-programmed electrical stimulus protocols to cells within the wells of the microtiter plate.
# 16-20 hours prior to running the assay on E-VIPR, HEK cells expressing a truncated form of human NaV 1.8 with full channel activity were seeded into microtiter 384-well plates, pre-coated with matrigel, at a density of 25,000 cells per well. 2.5-5% KIR2.1 BacMam virus was added to the final cell suspension before seeding into cell plates. […] Cells were expanded in 5-layer CellSTACK culture chambers or cell culture flasks with vented caps, with 90-95% humidity and 5% CO2.
# • Bath 1 Buffer containing 0.5% 3-cyclodextrin (made fresh prior to each use, Sigma #C4767), […] CC2-DMPE and 2 μM DiSBAC6(3). The solution was made by adding 10% Pluronic F127 stock equal to combined volumes of CC2-DMPE and DiSBAC6(3).
# The compound plate was backfilled with 45 μL per well of Compound Loading Buffer resulting in a 240-fold dilution of compound following a 1:1 transfer of compound into the cell plate (see Step 6). […] This assay dilution protocol was adjusted to enable a higher dose range to be tested in the presence of HS or if the final assay volume was altered. • 2) Hexyl Dye Solution was prepared. • 3) Cell plates were prepared. On the day of the assay, the media was aspirated, and the cells were washed three times with 80 μL of Bath-1 buffer, maintaining 25 μL residual volume in each well. • 4) 25 μL per well of Hexyl Dye Solution was dispensed into the cell plates. The cells were incubated for 20 minutes at room temperature or ambient conditions in darkness. • 5) 45 μL per well of Compound Loading Buffer was dispensed into compound plates. • 6) The cell plates were washed three times with 80 μL per well of Bath-1 Buffer, leaving 25 μL of residual volume. Then 25 µL per well from compound plate was transferred to each cell plate. The mixture was incubated for 30 minutes at room temperature/ambient conditions. • 7) The cell plate containing compound was read on E-VIPR using the current-controlled amplifier to deliver stimulation wave pulses using a symmetrical biphasic waveform. […] A pre-stimulus recording was performed for each well for 0.5 seconds to obtain the un-stimulated intensities baseline. The stimulatory waveform was followed by 0.5 seconds of post-stimulation recording to examine the relaxation to the resting state. All E-VIPR responses were measured at 200 Hz acquisition rate.
# The response as a function of time was reported as the ratios obtained using the following formula: […]
# The data were normalized by calculating the initial (Ri) and final (Rf) ratios. These were the average ratio values during part or all of the pre-stimulation period and during sample points during the stimulation period. The fluorescence ratio (Rf/Ri) was then calculated and reported as a function of time.
# Control responses were obtained by performing assays in the presence of the positive control, and in the absence of pharmacological agents (DMSO vehicle negative control). Responses to the negative (N) and positive (P) controls were calculated as above. The compound antagonist % activity A was then defined as:
# [formula] • where X is the maximum amplitude of the ratio response or number of action potential peaks, at the beginning of the pulse train in the presence of test compound.
row,Compound,pIC50
1,"Cc1cc(=O)cc(-c2cc(C(F)(F)F)cnc2OC(C)C)[nH]1 [Compound 49, 2-[2-isopropoxy-5-(trifluoromethyl)-3-pyridyl]-6-methyl-1H-pyridin-4-one]",≤ 5.30
2,"COc1ccc(C(F)(F)F)cc1-c1cc(=O)cc(C)[nH]1 [Compound 25, 2-[2-methoxy-5-(trifluoromethyl)phenyl]-6-methyl-1H-pyridin-4-one]",≤ 5.30
3,"COc1cccc(C)c1-c1cc(=O)cc(C)[nH]1 [Compound 22, 2-(2-methoxy-6-methyl-phenyl)-6-methyl-1H-pyridin-4-one]",≤ 5.30
4,"COc1ccc(-c2cc(=O)cc(C)[nH]2)c(C)c1 [Compound 28, 2-(4-methoxy-2-methyl-phenyl)-6-methyl-1H-pyridin-4-one]",≤ 5.30
5,"Cc1cc(-c2cc(=O)cc(C)[nH]2)cc(C(C)(C)C)c1 [Compound 13, 2-(3-tert-butyl-5-methyl-phenyl)-6-methyl-1H-pyridin-4-one]",≤ 5.30
6,"COc1ccc(C)c(-c2cc(=O)cc(C)[nH]2)c1 [Compound 10, 2-(5-methoxy-2-methyl-phenyl)-6-methyl-1H-pyridin-4-one]",≤ 5.30
7,"Cc1cc(=O)cc(-c2ccc3c(c2)CCC3)[nH]1 [Compound 1, 2-indan-5-yl-6-methyl-1H-pyridin-4-one]",≤ 5.30
8,"COc1cc(C)c(-c2cc(=O)cc(C)[nH]2)cc1C [Compound 8, 2-(4-methoxy-2,5-dimethyl-phenyl)-6-methyl-1H-pyridin-4-one]",≤ 5.30
9,"CCOc1cc(C)cc(-c2cc(=O)cc(C)[nH]2)c1F [Compound 18, 2-(3-ethoxy-2-fluoro-5-methyl-phenyl)-6-methyl-1H-pyridin-4-one]",≤ 5.30
10,"COc1cc(-c2cc(=O)cc(C)[nH]2)c(OC)cc1C [Compound 53, 2-(2,5-dimethoxy-4-methyl-phenyl)-6-methyl-1H-pyridin-4-one]",≤ 5.30
11,"Cc1cc(=O)cc(-c2ccc(OC(F)(F)F)cc2)[nH]1 [Compound 33, 2-methyl-6-[4-(trifluoromethoxy)phenyl]-1H-pyridin-4-one]",≤ 5.30
12,"Cc1cc(=O)cc(-c2ccc(C(F)(F)F)c(C)c2)[nH]1 [Compound 24, 2-methyl-6-[3-methyl-4-(trifluoromethyl)phenyl]-1H-pyridin-4-one]",≤ 5.30
13,"Cc1cc(=O)cc(-c2cccc(C)c2F)[nH]1 [Compound 67, 2-(2-fluoro-3-methyl-phenyl)-6-methyl-1H-pyridin-4-one]",≤ 5.30
14,"Cc1cc(-c2cc(=O)cc(C)[nH]2)cc(C(F)(F)F)c1 [Compound 7, 2-methyl-6-[3-methyl-5-(trifluoromethyl)phenyl]-1H-pyridin-4-one]",≤ 5.30
15,"COCCOc1cc(C(C)(C)C)ccc1-c1cc(=O)c(C)c(C)[nH]1 [Compound 163, 6-[4-tert-butyl-2-(2-methoxyethoxy)phenyl]-2,3-dimethyl-1H-pyridin-4-one]",≤ 5.30
16,"Cc1cc(=O)cc(-c2ccc(OC(F)(F)F)c(C)c2)[nH]1 [Compound 6, 2-methyl-6-[3-methyl-4-(trifluoromethoxy)phenyl]-1H-pyridin-4-one]",≤ 5.30
17,"Cc1cc(C)cc(-c2cc(=O)cc(C)[nH]2)c1 [Compound 69, 2-(3,5-dimethylphenyl)-6-methyl-1H-pyridin-4-one]",≤ 5.30
18,"Cc1cc(=O)cc(-c2cc(C(F)(F)F)ccc2CO)[nH]1 [Compound 16, 2-[2-(hydroxymethyl)-5-(trifluoromethyl)phenyl]-6-methyl-1H-pyridin-4-one]",≤ 5.30
19,"Cc1cc(=O)cc(-c2cc3c(cc2Cl)CCC3)[nH]1 [Compound 72, 2-(6-chloroindan-5-yl)-6-methyl-1H-pyridin-4-one]",≤ 5.30
20,"COc1ccccc1-c1cc(=O)cc(C)[nH]1 [Compound 14, 2-(2-methoxyphenyl)-6-methyl-1H-pyridin-4-one]",≤ 5.30

row,Compound,pIC50
1,"Cc1ccc(C)c(-c2cc(=O)cc(C)[nH]2)c1 [Compound 60, 2-(2,5-dimethylphenyl)-6-methyl-1H-pyridin-4-one]",≤ 5.30
2,"Cc1cc(=O)cc(-c2cncc(C(F)(F)F)c2)[nH]1 [Compound 58, 2-methyl-6-[5-(trifluoromethyl)-3-pyridyl]-1H-pyridin-4-one]",≤ 5.30
3,"Cc1cc(=O)cc(-c2cccc(F)c2C)[nH]1 [Compound 11, 2-(3-fluoro-2-methyl-phenyl)-6-methyl-1H-pyridin-4-one]",≤ 5.30
4,"COc1cc(-c2cc(C)no2)ccc1-c1cc(=O)c(C)c(C)[nH]1 [Compound 90, 6-[2-methoxy-4-(3-methylisoxazol-5-yl)phenyl]-2,3-dimethyl-1H-pyridin-4-one]",≤ 5.30
5,"Cc1cc(=O)cc(-c2cc(C)c(C)cc2F)[nH]1 [Compound 56, 2-(2-fluoro-4,5-dimethyl-phenyl)-6-methyl-1H-pyridin-4-one]",≤ 5.30
6,"Cc1cc(=O)cc(-c2ccc(OC(F)(F)F)cc2C)[nH]1 [Compound 30, 2-methyl-6-[2-methyl-4-(trifluoromethoxy)phenyl]-1H-pyridin-4-one]",≤ 5.30
7,"Cc1cc(=O)cc(-c2cccc(OC(F)(F)F)c2)[nH]1 [Compound 38, 2-methyl-6-[3-(trifluoromethoxy)phenyl]-1H-pyridin-4-one]",≤ 5.30
8,"CCOc1ncc(C(F)(F)F)cc1-c1cc(=O)cc(C)[nH]1 [Compound 52, 2-[2-ethoxy-5-(trifluoromethyl)-3-pyridyl]-6-methyl-1H-pyridin-4-one]",≤ 5.30
9,"Cc1cc(=O)cc(-c2cnc(C(F)(F)F)c(C)c2)[nH]1 [Compound 51, 2-methyl-6-[5-methyl-6-(trifluoromethyl)-3-pyridyl]-1H-pyridin-4-one]",≤ 5.30
10,"Cc1cc(=O)cc(-c2ccccc2C)[nH]1 [Compound 21, 2-methyl-6-(o-tolyl)-1H-pyridin-4-one]",≤ 5.30
11,"Cc1cc(-c2ccc(-c3cc(=O)c(C)c(C)[nH]3)c(C)c2)on1 [Compound 89, 2,3-dimethyl-6-[2-methyl-4-(3-methylisoxazol-5-yl)phenyl]-1H-pyridin-4-one]",≤ 5.30
12,"Cc1cc(=O)cc(-c2cc(C(C)(C)C)ccc2C)[nH]1 [Compound 48, 2-(5-tert-butyl-2-methyl-phenyl)-6-methyl-1H-pyridin-4-one]",≤ 5.30
13,"Cc1cc(=O)cc(-c2ccccc2OC(F)(F)F)[nH]1 [Compound 39, 2-methyl-6-[2-(trifluoromethoxy)phenyl]-1H-pyridin-4-one]",≤ 5.30
14,"COc1ccc(C(C)=O)cc1-c1cc(=O)cc(C)[nH]1 [Compound 45, 2-(5-acetyl-2-methoxy-phenyl)-6-methyl-1H-pyridin-4-one]",≤ 5.30
15,"Cc1ccccc1-c1cc(=O)c(C)c(C)[nH]1 [Compound 80, 2,3-dimethyl-6-(o-tolyl)-1H-pyridin-4-one]",≤ 5.30
16,"COc1ccc(-c2cc(=O)cc(C)[nH]2)c(C)c1C [Compound 55, 2-(4-methoxy-2,3-dimethyl-phenyl)-6-methyl-1H-pyridin-4-one]",≤ 5.30
17,"Cc1cc(=O)cc(-c2cnc(C)c(C(F)(F)F)c2)[nH]1 [Compound 50, 2-methyl-6-[6-methyl-5-(trifluoromethyl)-3-pyridyl]-1H-pyridin-4-one]",≤ 5.30
18,"Cc1cc(=O)cc(-c2ccc(OC(C)(C)C)cc2)[nH]1 [Compound 15, 2-(4-tert-butoxyphenyl)-6-methyl-1H-pyridin-4-one]",≤ 5.30
19,"Cc1cc(=O)cc(-c2ccc(C)c(C)c2)[nH]1 [Compound 35, 2-(3,4-dimethylphenyl)-6-methyl-1H-pyridin-4-one]",≤ 5.30
